Assay results: PMC9106352
Results are given in words; binding and its absence hold for the method and conditions named. Binding seen in cells or lysates may run through a third protein. Some results given as binding are weak or reduced against the parent protein; the word gives no strength.

Chains of the proteins cited; added tags and fusions are not shown. Residues count along the entry.
UniProt Q03265, residues 44-553: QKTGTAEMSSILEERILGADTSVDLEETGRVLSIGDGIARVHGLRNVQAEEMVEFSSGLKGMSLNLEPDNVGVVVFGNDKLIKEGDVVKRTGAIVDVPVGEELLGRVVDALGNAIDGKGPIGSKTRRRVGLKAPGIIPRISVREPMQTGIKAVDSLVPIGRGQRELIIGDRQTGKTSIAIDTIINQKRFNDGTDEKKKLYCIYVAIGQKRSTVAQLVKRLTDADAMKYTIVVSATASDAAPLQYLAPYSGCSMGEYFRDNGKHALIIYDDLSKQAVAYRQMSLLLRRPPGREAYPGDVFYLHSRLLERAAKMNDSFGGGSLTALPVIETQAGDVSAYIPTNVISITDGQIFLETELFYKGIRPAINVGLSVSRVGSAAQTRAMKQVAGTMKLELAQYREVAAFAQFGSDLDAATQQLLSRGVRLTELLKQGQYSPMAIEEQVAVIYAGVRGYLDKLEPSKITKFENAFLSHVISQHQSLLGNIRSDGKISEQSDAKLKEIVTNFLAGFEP
UniProt P56480, residues 47-529: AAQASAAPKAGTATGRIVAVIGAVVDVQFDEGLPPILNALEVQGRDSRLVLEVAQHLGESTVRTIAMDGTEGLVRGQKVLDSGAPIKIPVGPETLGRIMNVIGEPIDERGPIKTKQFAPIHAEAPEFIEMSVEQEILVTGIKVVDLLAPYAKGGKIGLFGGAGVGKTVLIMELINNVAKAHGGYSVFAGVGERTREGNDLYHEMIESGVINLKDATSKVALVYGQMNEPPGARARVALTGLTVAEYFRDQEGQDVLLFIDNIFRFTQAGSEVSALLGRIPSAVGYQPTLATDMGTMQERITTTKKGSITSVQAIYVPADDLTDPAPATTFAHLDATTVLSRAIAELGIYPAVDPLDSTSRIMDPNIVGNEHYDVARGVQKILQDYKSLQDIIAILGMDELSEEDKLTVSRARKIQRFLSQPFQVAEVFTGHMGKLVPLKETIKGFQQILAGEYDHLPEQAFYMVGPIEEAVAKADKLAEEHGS

Target: FoF1-ATP synthase α subunit (ATPA) (mouse (endogenous in mouse heart)) (UniProt Q03265)
Test: cross-linking; isobaric quantitative PIR cross-linker GG-BDP-NHP (10 mM) added to minced heart tissue of 5 TAC and 5 sham-operated mice in 170 mM Na2HPO4 pH 8.0, 30 min, room temperature; mitochondria then isolated, digested, cross-linked peptides enriched on avidin and identified by LC-MS/MS; links mapped on PDB 6j5k

binding: binds
Substance: FoF1-ATP synthase β subunit (ATPB) (from UniProt P56480 47-529)
